Results deposited as PubChem BioAssay AID1259308 (NCATS, 2017).

- Assay: 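Knock-downs that increase output of a recombinant reporter protein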 (primary screen)
- System: human HEK293 embryonic kidney cells stably expressing firefly luciferase (HEK-CMV-Luc2-Hygro)
- Reagents: single siRNA against human genes, 0.8 pmol siRNA per well
- Duration: 72 h
- Measurement: 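Reporter luminescence and viable-cell signal on separate replicate plates, given as percent of non-targeting control and median/MAD z-scores, plus per-cell luciferase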
- Reading the numbers: total luciferase, z-score: higher = more reporter protein produced
- Hit rule: 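An siRNA counts as active if its total luciferase robust z-score exceeds 3; genes with two or more such siRNAs out of three were retested with fresh siRNAs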
- Calls: active = raised luciferase; inactive = no rise
In all, the deposit lists about 59,000 reagents; this is a part drawn at random. Of all reagents, about 1,510 (2.6%) are marked active. 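Calls use total luciferase alone and ignore viability, so some active siRNAs may act by altering cell number.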 The numbers tell different reagents against one gene apart. Not all columns of the deposit are shown.

Which result is listed for TMBIM4 (transmembrane BAX inhibitor motif containing 4) #1?
total luciferase, z-score: 2.19; call: inactive

With TMBIM4 (transmembrane BAX inhibitor motif containing 4) #2, how do the results read?
total luciferase, z-score: -1.53; call: inactive

How did the screen score TMBIM4 (transmembrane BAX inhibitor motif containing 4) #3?
total luciferase, z-score: -1.07; call: inactive

For RABEP2 (rabaptin, RAB GTPase binding effector protein 2) #1, what does the deposit list?
total luciferase, z-score: 0.158; call: inactive

Which result is listed for RABEP2 (rabaptin, RAB GTPase binding effector protein 2) #2?
total luciferase, z-score: 0.613; call: inactive

What is on record for RABEP2 (rabaptin, RAB GTPase binding effector protein 2) #3?
total luciferase, z-score: -0.834; call: inactive

With PNPLA3 #1, what was measured?
total luciferase, z-score: 0.413; call: inactive

What did the screen give for PNPLA3 #2?
total luciferase, z-score: -0.787; call: inactive

How did the screen score PNPLA3 #3?
total luciferase, z-score: -0.609; call: inactive

How did the screen score TICAM2 (TIR domain containing adaptor molecule 2) #1?
total luciferase, z-score: 1.92; call: inactive

With TICAM2 (TIR domain containing adaptor molecule 2) #2, how do the results read?
total luciferase, z-score: 0.977; call: inactive

With TICAM2 (TIR domain containing adaptor molecule 2) #3, what was measured?
total luciferase, z-score: 1.33; call: inactive

2 entries from above, ordered by “total luciferase, z-score”, ascending.
PNPLA3 #3 — total luciferase, z-score: -0.609; call: inactive
TICAM2 (TIR domain containing adaptor molecule 2) #1 — total luciferase, z-score: 1.92; call: inactive

The list goes on.
For MAPK6 (mitogen-activated protein kinase 6) #1, how do the results read?
total luciferase, z-score: 0.908; call: inactive

What did the screen give for MAPK6 (mitogen-activated protein kinase 6) #2?
total luciferase, z-score: 1.72; call: inactive

For MAPK6 (mitogen-activated protein kinase 6) #3, what was measured?
total luciferase, z-score: 0.751; call: inactive

With IAPP (islet amyloid polypeptide) #1, what was measured?
total luciferase, z-score: -0.404; call: inactive

What did the screen give for IAPP (islet amyloid polypeptide) #2?
total luciferase, z-score: -1.61; call: inactive

For IAPP (islet amyloid polypeptide) #3, what does the deposit list?
total luciferase, z-score: -0.674; call: inactive

What did the screen give for IMP4 (IMP U3 small nucleolar ribonucleoprotein 4) #1?
total luciferase, z-score: -0.958; call: inactive

What is on record for IMP4 (IMP U3 small nucleolar ribonucleoprotein 4) #2?
total luciferase, z-score: -2.58; call: inactive

Which result is listed for IMP4 (IMP U3 small nucleolar ribonucleoprotein 4) #3?
total luciferase, z-score: -1.83; call: inactive
